Assay results: US10420844B2 (Mederis Diabetes LLC, priority 2011, dated 2019)

Assay: general procedure: Fmoc solid-phase peptide synthesis; Rink amide resin; DIC/HOBt
Conditions: whole synthesis, analytical hplc/mass spectrometry, scale of the general procedure 0.3 mmol

| Substance | final LC-MS purity [%] |
| --- | --- |
| [Ac5c]V[Aib]EIQL[Nle]HQRARWIQK | >97 |
| His-Aib-Gln-Gly-Thr-Phe-Thr-Ser-Asp-Bip-Ser-Lys-Tyr-Leu-Glu-Ser-Lys | 98.03 |

Non-standard residues stand in square brackets, D forms with d. No end group written: not given here. Nle = CCCC[C@H](N)C(=O)O; Ac5c = NC1(C(=O)O)CCCC1; Aib = CC(C)(N)C(=O)O
